Some results come without the dose or concentration used. Where no unit stands, none is given here, and values compare only within one read-out.
Experiment: Plasma lipid mediator profiling in RA patients 6 months after DMARD treatment initiation
Assay type: in vivo, human
Details: 6 months after treatment initiation

SMILES | Peripheral blood lipid mediator profile after 6 months of DMARD treatment, DMARD Non-Responders, Mean ± SEM | Peripheral blood lipid mediator profile after 6 months of DMARD treatment, DMARD Responders, Mean ± SEM
CC/C=C\C[C@H](O)[C@@H](/C=C/C=C/C=C\C/C=C\C/C=C\CCC(=O)O)SC[C@H](N)C(=O)O [PCTR3] | 0.00 ± 0.00 | 0.00 ± 0.00
CC/C=C\C[C@H](O)\C=C/C=C/C=C/[C@H](O)C/C=C\C/C=C\CCC(=O)O [PD1] | 0.78 ± 0.27 | 1.14 ± 0.19
CC/C=C\C[C@H](O)\C=C/C=C/C=C/[C@H](O)C/C=C\CCCCCC(=O)O [PD1n-3 DPA] | 0.34 ± 0.11 | 0.37 ± 0.08
CC/C=C\C[C@H](O)/C=C/C=C\C=C\[C@@H](O)C/C=C\C/C=C\CCC(=O)O [PDX] | 9.23 ± 3.38 | 0.92 ± 0.36
CCCCC[C@H](O)/C=C/[C@H]1C(=O)C[C@H](O)[C@@H]1C/C=C\CCCC(=O)O [PGD2] | 12.26 ± 5.93 | 7.48 ± 1.87
CCCCC[C@H](O)/C=C/[C@H]1[C@H](O)CC(=O)[C@@H]1C/C=C\CCCC(=O)O [PGE2] | 11.29 ± 4.59 | 11.10 ± 3.55
CCCCC[C@H](O)/C=C/[C@@H]1[C@@H](C/C=C\CCCC(=O)O)[C@@H](O)C[C@H]1O [PGF2a] | 13.45 ± 3.42 | 11.24 ± 2.30
CC/C=C\C[C@H](O)/C=C/C=C\C=C\C=C\[C@@H](O)[C@@H](O)C/C=C\CCC(=O)O [RvD1] | 0.60 ± 0.19 | 0.09 ± 0.06
CC/C=C\C[C@H](O)/C=C/C=CC=CC=CC(O)[C@@H](O)CCCCCC(=O)O (stereo partly drawn) [RvD1n-3 DPA] | 1.02 ± 0.27 | 1.19 ± 0.31
CC/C=C\C[C@H](O)[C@H](O)/C=C/C=C/C=C\C=C\[C@@H](O)C/C=C\CCC(=O)O [RvD2] | 0.18 ± 0.13 | 0.97 ± 0.44
CC/C=C\CC(O)C(O)/C=C/C=CC=CC=CC(O)CCCCCC(=O)O (stereo not drawn) [RvD2n-3 DPA] | 1.68 ± 0.58 | 1.54 ± 0.27
CC/C=C\C[C@H](O)/C=C/C=C\C[C@@H](O)/C=C/C=C/C=C\[C@@H](O)CCC(=O)O [RvD3] | 0.02 ± 0.02 | 0.13 ± 0.05
CC/C=C\C[C@H](O)/C=C\C=C\C/C=C/C=C/C=C/C(O)[C@@H](O)CCC(=O)O (stereo partly drawn) [RvD4] | 0.93 ± 0.26 | 1.38 ± 0.41
CC/C=C\C[C@H](O)/C=C/C=C\C/C=C\C=C\[C@@H](O)C/C=C\CCC(=O)O [RvD5] | 0.32 ± 0.11 | 0.30 ± 0.12
CC/C=C\CC(O)/C=C/C=CCC=C/C=C\C(O)CCCCCC(=O)O (stereo not drawn) [RvD5n-3 DPA] | 1.38 ± 0.28 | 1.26 ± 0.21
CC/C=C\C[C@H](O)/C=C/C=C\C/C=C\C/C=C\C=C\[C@@H](O)CCC(=O)O [RvD6] | 0.55 ± 0.16 | 0.52 ± 0.10
CC[C@@H](O)/C=C/C=C\C[C@@H](O)/C=C/C=C/C=C\[C@@H](O)CCCC(=O)O [RvE1] | 0.00 ± 0.00 | 0.09 ± 0.07
CC[C@@H](O)/C=C/C=C\C/C=C\C/C=C\C=C\[C@@H](O)CCCC(=O)O [RvE2] | 3.62 ± 1.44 | 5.26 ± 1.02
CC[C@H](O)C(O)/C=C/C=C/C=C\C/C=C\C/C=C\CCCC(=O)O (stereo partly drawn) [RvE3] | 0.90 ± 0.23 | 0.87 ± 0.26
CCC(O)/C=C/C=C\C=C\C(O)C/C=C\C=C\C(O)CCCCCC(=O)O (stereo not drawn) [RvT1] | 0.23 ± 0.12 | 0.34 ± 0.13
CC/C=C\C/C=C\C=C\C(O)C(O)/C=C/C=C\C(O)CCCCCC(=O)O (stereo not drawn) [RvT2] | 0.16 ± 0.10 | 0.04 ± 0.04
CC/C=C\C/C=C\C=C\C(O)/C=C/C=C/C(O)C(O)CCCCCC(=O)O (stereo not drawn) [RvT3] | 0.00 ± 0.00 | 0.00 ± 0.00
CC/C=C\C/C=C\C=C\C(O)C/C=C\C=C\C(O)CCCCCC(=O)O (stereo not drawn) [RvT4] | 0.93 ± 0.27 | 0.31 ± 0.09
CCCCC[C@H](O)/C=C/[C@H]1OC(O)C[C@H](O)[C@@H]1C/C=C\CCCC(=O)O (stereo partly drawn) [TXB2] | 168.15 ± 85.85 | 190.70 ± 72.02
